Experimental findings from the supplement of paper PMC11150407 are described below.

Where a name gives a salt, the structure may show the parent alone. About 180 (8.6%) of roughly 2,100 compounds showed an effect of 50% or more. Some of the results follow.

For this assay, the system named is MOLM1 and UCSD/AML1 (averaged). The assay can be described thus: cell viability relative to DMSO control (POC); higher = less growth inhibition. The settings on record: 1 µM; 72 h. How it is done: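 Primary viability screen in the 3q26 EVI1-high AML cell lines MOLM1 and UCSD/AML1 (1.5e3 cells/well, 384-well), compounds at 1 uM for 72 h. ATP CellTiter-Glo read-out given as percent of viable cells over DMSO control (POC), averaged over duplicates. DMSO was the negative control and 5 uM etoposide the positive control. This mapping covers the MicroSource Spectrum and Selleck anticancer libraries (drug names).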
As to `CN(C)CCOC(c1ccc(Cl)cc1)c1ccccn1` (configuration not stated), the cell viability turned out to be 111%. `COc1c2ccoc2cc2oc(=O)ccc12`: the cell viability is 98.4%. In the case of `Cc1ccccc1C(OCCN(C)C)c1ccccc1` (configuration not stated) it was 99.5%. As for `CC(=O)OC(C)(C)[C@@H]1Cc2cc3ccc(=O)oc3cc2O1`, the cell viability amounted to 100%. Turning to `O=C1C(O)=C([C@H]2CC[C@H](c3ccc(Cl)cc3)CC2)C(=O)c2ccccc21`, the cell viability was 96.7%. `CN1CCOC(c2ccccc2)c2ccccc2C1` (configuration not stated): the cell viability was 104%. Turning to `N=C(N)NCCCCN`, the cell viability is 96.8%. Take `COc1ncc(-c2ccc3nccc(-c4ccnnc4)c3c2)cc1NS(=O)(=O)c1ccc(F)cc1F`: the cell viability stood at 12.4%. For `CN1CCC(=C2c3ccccc3CCc3sccc32)CC1`, the cell viability came to 92.9%. On to `CCN(CC)CCOc1ccc(C(=C(Cl)c2ccccc2)c2ccccc2)cc1`, for which the cell viability was 96.6%. For the molecule `CC1(C)CC[C@]2(C(=O)O)CC[C@]3(C)C(=CCC4[C@@]5(C)CC[C@@H](O)C(C)(C)C5CC[C@]43C)C2C1` (some centres not stated), the cell viability came out at 102%. As to `CCCCCOC(=O)Nc1nc(=O)n([C@@H]2O[C@H](C)[C@@H](O)[C@H]2O)cc1F` [Capecitabine (Xeloda)], the cell viability came to 101%. On to `CCCCNc1ccc(C(=O)OCCN(C)C)cc1`, for which the cell viability amounted to 98.6%. For `CC(O)(P(=O)(O)O)P(=O)(O)O`, the cell viability came to 92.4%. Consider `Cc1cnc(C(=O)NCCc2ccc(S(=O)(=O)NC(=O)NC3CCCCC3)cc2)cn1`, for which the cell viability was 99.7%. `O=C1[C@H](CC[C@H](O)c2ccc(F)cc2)[C@@H](c2ccc(O)cc2)N1c1ccc(F)cc1`: the cell viability came to 94.2%. Consider `O=C1[C@H](CC[C@H](O)c2ccc(F)cc2)[C@@H](c2ccc(O)cc2)N1c1ccc(F)cc1` [Ezetimibe (Zetia)], for which the cell viability came out at 93.8%. `CC(=O)O[C@H]1C[C@@H](OC(C)=O)C(C)(C)[C@@H]2C[C@@H](OC(C)=O)[C@@]3(C)C4=CC(=O)O[C@@H](c5ccoc5)[C@]4(C)CC[C@@H]3[C@@]12C`: the cell viability is 94.5%. Turning to `COc1ccc(C(=O)c2ccccc2O)c(O)c1`, the cell viability amounted to 107%. Take `COCCc1ccc(OCC(O)CNC(C)C)cc1` (configuration not stated): the cell viability was 98.9%. Turning to `Nc1nc2[nH]cc(CCc3ccc(C(=O)N[C@@H](CCC(=O)O)C(=O)O)cc3)c2c(=O)[nH]1` [Pemetrexed], the cell viability amounted to 101%.

For the molecule `COC1=CC(=O)C=C(OC)C1=O`, the cell viability was 91.5%. Consider `CC(C)Cc1ccc(C(C)C(=O)O)cc1` (configuration not stated), for which the cell viability worked out at 103%. `O=c1c(O)c(-c2ccc(O)c(O)c2)oc2cc(O)cc(O)c12` [Quercetin (Sophoretin)]: the cell viability amounted to 84%. Consider `O=c1c(O)c(-c2ccc(O)c(O)c2)oc2cc(O)cc(O)c12`, for which the cell viability amounted to 102%. On to `O=C(O)C1(C(=O)O)CCC1.[NH2-].[NH2-].[Pt+2]` [Carboplatin], for which the cell viability is 87.5%. Turning to `O=C(O)C1(C(=O)O)CCC1.[NH2-].[NH2-].[Pt+2]`, the cell viability turned out to be 100%. Regarding `CC1=C(C/C=C(\C)CCC[C@H](C)CCC[C@H](C)CCCC(C)C)C(=O)c2ccccc2C1=O`, the cell viability was found to be 85.4%.

Consider `COc1cc(OC)c(-c2c(OC)cc(OC)cc2OC)c(OC)c1`, for which the cell viability was found to be 104%. Regarding `C=C(c1ccc(C(=O)O)cc1)c1cc2c(cc1C)C(C)(C)CCC2(C)C` [Bexarotene], the cell viability is 78.1%. For `C#C[C@]1(O)CC[C@H]2[C@@H]3CCC4=C(CCC(=O)C4)[C@H]3CC[C@@]21C`, the cell viability is 95.5%. For the molecule `CCOC(=O)[N-]c1c[n+](N2CCOCC2)no1`, the cell viability came out at 90.5%. Consider `CC[N+](CC)(CC)CCOc1cccc(OCC[N+](CC)(CC)CC)c1OCC[N+](CC)(CC)CC`, for which the cell viability stood at 101%. As to `CC(C)(C)NCC(O)c1cc(O)cc(O)c1` (configuration not stated), the cell viability was 99.1%.

For the molecule `COc1ccc2c(c1)O[C@@H]1COc3cc(OC)c(OC)cc3[C@@H]1C2=O`, the cell viability amounted to 102%.

With `CCN(CCCOc1ccc2c(Nc3cc(CC(=O)Nc4cccc(F)c4)[nH]n3)ncnc2c1)CCOP(=O)(O)O` [Barasertib (AZD1152-HQPA)], the cell viability was 74.2%.

As to `CN[C@@H]1[C@H](O[C@H]2[C@H](O[C@H]3[C@H](O)[C@@H](O)[C@H](NC(=N)N)[C@@H](O)[C@@H]3NC(=N)N)O[C@@H](C)[C@]2(O)CO)O[C@@H](CO)[C@H](O)[C@H]1O`, the cell viability is 109%. Regarding `NCc1ccc(S(N)(=O)=O)cc1`, the cell viability was 98.8%. In the case of `CCc1oc2ccccc2c1C(=O)c1cc(Br)c(O)c(Br)c1`, the cell viability came to 94%. On to `O=C(O)c1cccnc1C(=O)O`, for which the cell viability stood at 94.1%.

Take `CCOc1ccc(NC(C)=O)cc1`: the cell viability amounted to 92.7%. As to `CN1CCC[C@@H]1CCO[C@](C)(c1ccccc1)c1ccc(Cl)cc1`, the cell viability was 97.9%.

Turning to `CN1CCN(c2nc(C3=C(c4c[nH]c5ccccc45)C(=O)NC3=O)c3ccccc3n2)CC1` [Sotrastaurin (AEB071)], the cell viability came to 60.2%. With `C/C=C1\[C@H]2C=C(C)C[C@]1(N)c1ccc(=O)[nH]c1C2`, the cell viability turned out to be 78.7%. On to `C[N+](C)(C)CCO.[Cl-]`, for which the cell viability came to 94.5%. In the case of `CN1CCC(OC(c2ccccc2)c2ccccc2)CC1` it was 108%; in that of `O=C(Oc1cccc2cccnc12)c1ccccc1`, 107%; in that of `COC(=O)c1ccc2c(C(=Nc3ccc(N(C)C(=O)CN4CCN(C)CC4)cc3)c3ccccc3)c(O)[nH]c2c1` [BIBF1120 (Vargatef)], 11.9%. As for `Cn1cc(-c2ccc3nnc(Sc4ccc5ncccc5c4)n3n2)cn1`, the cell viability was found to be 82.3%. With `Clc1ccc(Nc2nnc(Cc3ccncc3)c3ccccc23)cc1` [Vatalanib dihydrochloride (PTK787)], the cell viability amounted to 44.6%. On to `Fc1ccc([C@@H]2CCNC[C@H]2COc2ccc3c(c2)OCO3)cc1`, for which the cell viability turned out to be 81%.

Regarding `CN(C/C=C/C#CC(C)(C)C)Cc1cccc2ccccc12`, the cell viability was 103%. In the case of `O=C(NC1CCCCC1)NC1CCCCC1`, the cell viability worked out at 120%. With `C=C1CCC2C(CC2(C)C)C(=O)CCC1O` (configuration not stated), the cell viability amounted to 104%. Then `NC(CO)C(=O)NNCc1ccc(O)c(O)c1O` (configuration not stated), with 101%; and `C[C@H]1COc2c(N3CCN(C)CC3)c(F)cc3c(=O)c(C(=O)O)cn1c23`, with 85.9%.

For `CN(C)CCCN1c2ccccc2CCc2ccccc21`, the cell viability came out at 102%.

For `NCC[C@H](O)C(=O)N[C@@H]1C[C@H](N)[C@@H](O[C@H]2O[C@H](CN)[C@@H](O)[C@H](O)[C@H]2O)[C@H](O)[C@H]1O[C@H]1O[C@H](CO)[C@@H](O)[C@H](N)[C@H]1O`, the cell viability is 95.1%. For `COc1cc(/C=C/C(=O)CC(=O)/C=C/c2ccc(O)c(OC)c2)ccc1O`, the cell viability worked out at 101%. Then `Cc1cc2nc3c(=O)[nH]c(=O)nc-3n(CC(O)C(O)C(O)COP(=O)(O)O)c2cc1C` (configuration not stated), with 83.8%; and `CC(C)=CCOc1cc2oc(=O)ccc2cc1O`, with 98%; and `Cc1cc2c(F)c(Oc3ncnn4cc(OC[C@@H](C)O)c(C)c34)ccc2[nH]1`, with 89.6%.

With `CC(=O)OCC[N+](C)(C)C`, the cell viability was 102%.

With `OCCN1C[C@H](O)[C@@H](O)[C@H](O)[C@H]1CO`, the cell viability worked out at 97.2%.

For the molecule `CC(=O)O[C@@H]1CC2C(C)(C)C(=O)CC[C@]2(C)C2CC[C@]3(C)C(=CC(=O)O[C@H]3c3ccoc3)[C@@]21C` (some centres not stated), the cell viability turned out to be 110%. For the molecule `CC(C)C(=O)Nc1ccc([N+](=O)[O-])c(C(F)(F)F)c1`, the cell viability came to 100%.

Take `CC(C)C(=O)Nc1ccc([N+](=O)[O-])c(C(F)(F)F)c1` [Flutamide (Eulexin)]: the cell viability stood at 83%. In the case of `Cn1cnc([N+](=O)[O-])c1Sc1ncnc2[nH]cnc12` [Azathioprine (Azasan, Imuran)] it was 98.3%.

Consider `Cn1cnc([N+](=O)[O-])c1Sc1ncnc2[nH]cnc12`, for which the cell viability was 96.6%. In the case of `O=C(O)CCCC[C@@H]1SC[C@@H]2NC(=O)N[C@@H]21`, the cell viability is 96.8%. With `CC1COc2c(N3CCN(C)CC3)c(F)cc3c(=O)c(C(=O)O)cn1c23` (configuration not stated), the cell viability is 103%. In the case of `C[C@H](CCC(=O)O)[C@H]1CC[C@H]2[C@@H]3CC[C@@H]4C[C@H](O)CC[C@]4(C)[C@H]3CC[C@]12C`, the cell viability was 87.5%.

In the case of `CC(C)NCC(O)c1cc(O)cc(O)c1` (configuration not stated), the cell viability was 95.8%. Then `O=C(O)CN(CCN(CC(=O)O)CC(=O)O)CCN(CC(=O)O)CC(=O)O`, with 88.8%; and `COc1ccc(-c2cc(=O)c3c(OC)c(OC)c(OC)cc3o2)cc1OC`, with 105%; and `O=C(/C=C/C=C/c1ccc2c(c1)OCO2)N1CCCCC1`, with 99.9%.

On to `CCC(=O)OCC(=O)[C@@]1(OC(=O)CC)[C@@H](C)C[C@H]2[C@@H]3CCC4=CC(=O)C=C[C@]4(C)[C@@]3(Cl)[C@@H](O)C[C@@]21C`, for which the cell viability turned out to be 69.6%. As to `COc1ccc(-c2cc(=O)c3c(O)cc(OC)cc3o2)cc1`, the cell viability came out at 110%. As to `CCN(CC)Cc1cc(Nc2ccnc3cc(Cl)ccc23)ccc1O`, the cell viability worked out at 104%. As for `CC(C)=CCC/C(C)=C/CC/C(C)=C/CC/C(C)=C/CO`, the cell viability was determined as 95.1%. As for `CC(=O)OCC1=C(C(=O)O)N2C(=O)[C@@H](NC(=O)Cc3cccs3)[C@H]2SC1`, the cell viability is 108%. In the case of `CC(C)(C)NCC(O)c1ccc(O)c(CO)c1` (racemic) it was 93.2%. Take `C=CCn1c(=O)c2cnc(Nc3ccc(N4CCN(C)CC4)cc3)nc2n1-c1cccc(C(C)(C)O)n1`: the cell viability amounted to 19.2%. For the molecule `CCN(CC)CCNC(=O)COc1ccc(OC)cc1`, the cell viability is 97.5%. With `C=CCCCCCCCCC(=O)O`, the cell viability is 102%.

On to `CC1(C)S[C@@H]2[C@H](NC(=O)Cc3ccccc3)C(=O)N2[C@H]1C(=O)O`, for which the cell viability came to 106%. Turning to `CCCCc1nc(Cl)c(CO)n1Cc1ccc(-c2ccccc2-c2nnn[nH]2)cc1`, the cell viability amounted to 91.4%. For `COc1c(O)cc2oc3cc(O)c(CC=C(C)C)c(O)c3c(=O)c2c1CC=C(C)C` [alpha-MANGOSTIN], the cell viability was 95.2%. `CC1(C)C[C@@H]2C(=O)CC[C@H]3O[C@]3(C)CC[C@H]21`: the cell viability worked out at 104%.

Regarding `O=C1CCC(N2C(=O)c3ccccc3C2=O)C(=O)N1` (configuration not stated) [Thalidomide], the cell viability was determined as 104%. For the molecule `O=C1CCC(N2C(=O)c3ccccc3C2=O)C(=O)N1` (configuration not stated), the cell viability is 104%. In the case of `C[n+]1ccccc1C=NO` it was 99.8%; in that of `CC[n+]1c(-c2ccccc2)c2cc(N)ccc2c2ccc(N)cc21`, 93%. With `CNCCCN1c2ccccc2CCc2ccccc21`, the cell viability came to 100%. Take `O=C(O)[C@]1(O)C[C@@H](O)[C@@H](O)[C@H](O)C1`: the cell viability was 97.5%. On to `CCC(C)n1ncn(-c2ccc(N3CCN(c4ccc(OCC5COC(Cn6cncn6)(c6ccc(Cl)cc6Cl)O5)cc4)CC3)cc2)c1=O` (configuration not stated) [Itraconazole (Sporanox)], for which the cell viability amounted to 87.1%.

For the molecule `CCC(C)n1ncn(-c2ccc(N3CCN(c4ccc(OCC5COC(Cn6cncn6)(c6ccc(Cl)cc6Cl)O5)cc4)CC3)cc2)c1=O` (configuration not stated), the cell viability was 84.1%.

As usually defined, the cell viability is a read-out of living cells in per cent, often relative to untreated cells.
